The other results are listed elsewhere or left out.

Chains of the proteins cited; added tags and fusions are not shown.
UniProt Q0JBA9, entry or part of it: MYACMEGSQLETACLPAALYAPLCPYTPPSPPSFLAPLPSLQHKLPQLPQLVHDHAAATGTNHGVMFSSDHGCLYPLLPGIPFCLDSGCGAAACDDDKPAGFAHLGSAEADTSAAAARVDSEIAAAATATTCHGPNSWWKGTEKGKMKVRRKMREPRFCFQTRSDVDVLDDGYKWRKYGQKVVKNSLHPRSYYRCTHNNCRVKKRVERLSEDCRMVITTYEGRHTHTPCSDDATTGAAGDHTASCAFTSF

The test has as its target OsWRKY34 (Oryza sativa, UniProt Q0JBA9 1-250). The experiment in a line: protein-binding microarray (RPBM); PBS, 2% BSA, 51.3 ng/ul salmon testes DNA, 50 uM zinc acetate, 200 nM TF, 25 C, 1 h; high values mean tight binding. Particulars: protein: recombinant; tags: N-terminal polyhistidine and DsRed monomer fusion (pET32a); label: CyDye5-dUTP incorporated in the synthesized complementary strand; 3' TTTTT single-stranded linker to array surface; dsDNA, one strand shown. In a few lines:
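The binding signal for each feature is its fluorescence intensity in arbitrary units. An Axon 4000B scanner was used to read a custom Agilent array that had been made double-stranded with Cy5-dUTP primer extension, blocked with 2% BSA, incubated at 25 °C for 1 h with 200 nM protein in PBS, 2% BSA, salmon testes DNA and 50 µM zinc acetate, and washed. The protein was an N-terminal polyhistidine–DsRed transcription factor fusion from E. coli BL21-CodonPlus, purified on Ni–NTA.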
As to “AAACTAGTCAGTAGTCACAACACACCTAACGTTTCTACACCGGAGTCACCTAGTGCAG”, the binding signal is 9030 fluorescence intensity (a.u.).

On to “GTAGCTTTTATCGTTGTCAGCCCGCATTTAAAACTTTAATCGGAGTCACCTAGTGCAG”, for which the binding signal is 10600 fluorescence intensity (a.u.).

As to “TTAAAGGGTAGTGGGTCTTTTGGGGTGGAGTGGAGCTGTGCGGAGTCACCTAGTGCAG”, the binding signal is 8480 fluorescence intensity (a.u.).

As to “TCTAGCGTACAGATGCTGCAACCGTTTTGTTTGTTTCTCCCGGAGTCACCTAGTGCAG”, the binding signal is 14200 fluorescence intensity (a.u.).

On to “GCCCAAACCAACCTGATCTCGAGAGGCCATGGCCATCATCCGGAGTCACCTAGTGCAG”, for which the binding signal is 8060 fluorescence intensity (a.u.).

Consider “TATGCTTATTCTATTATTCCATGCTTTGCTTTTGTGCAGTCGGAGTCACCTAGTGCAG”, for which the binding signal is 9940 fluorescence intensity (a.u.).

“TCCTTCCCGTGTATAAATAGCCCAACAATACACCACTGTTCGGAGTCACCTAGTGCAG”: the binding signal was 8140 fluorescence intensity (a.u.).

Consider “GTGTCTTGTGCGTTTGCTCTCTCGCGAACCATTCCACAGACGGAGTCACCTAGTGCAG”, for which the binding signal was 8380 fluorescence intensity (a.u.).

With “CATCGCTGCGCGCACCGAGTCCACATGCACCGGCTCTGACCGGAGTCACCTAGTGCAG”, the binding signal was 8050 fluorescence intensity (a.u.).

As to “CCGTATATGTCTGTGTCGTGTCGTTGTCACTGTGTGGTGACGGAGTCACCTAGTGCAG”, the binding signal was 12300 fluorescence intensity (a.u.).

Take “GGAAGGGCCTCTGGGTGTAGATTTTTCAGATAGTTTCTGCCGGAGTCACCTAGTGCAG”: the binding signal is 10000 fluorescence intensity (a.u.).

Turning to “CACATCTTCTTGCTCCATCTCTGCTTACTCCACTCTTTCTCGGAGTCACCTAGTGCAG”, the binding signal is 14300 fluorescence intensity (a.u.).

In the case of “CGCTCCACCACCCGCCCGCTCGCCCATTTCCTCTCCCTTTCGGAGTCACCTAGTGCAG”, the binding signal is 12300 fluorescence intensity (a.u.).

“CCACGCGGCCGCGTCCAGGTCATCGTCGTCGCCTCGCCTCCGGAGTCACCTAGTGCAG”: the binding signal was 8930 fluorescence intensity (a.u.).

Turning to “TGTCTAACATTTGATTATCCGTTTTATTTTAATCTTTTTACGGAGTCACCTAGTGCAG”, the binding signal is 9000 fluorescence intensity (a.u.).

With “TCACTGACATGTGGGTCCCATTTACATTTGTTTTTATTTTCGGAGTCACCTAGTGCAG”, the binding signal is 9930 fluorescence intensity (a.u.).

Consider “TTATACTCCCTCCGTTTCGAAATGTTTGACGCCGTTGACTCGGAGTCACCTAGTGCAG”, for which the binding signal was 11400 fluorescence intensity (a.u.).

For the sequence “ACCTGGCATTGTATCATGGTCGCTTCCTTTTCTGTTCTCACGGAGTCACCTAGTGCAG”, the binding signal is 13400 fluorescence intensity (a.u.).

Take “TTCACTCCCGTCCCGGCCCTCTACTCCACTCCACCCACCGCGGAGTCACCTAGTGCAG”: the binding signal is 10800 fluorescence intensity (a.u.).

With “GAATTTTTCGGTCCCCAAACTTATCATGAGTGTCGTATATCGGAGTCACCTAGTGCAG”, the binding signal was 9260 fluorescence intensity (a.u.).

Consider “TATTTTCTGGATTCAATTGCCACGTAAGCGCCACATCATTCGGAGTCACCTAGTGCAG”, for which the binding signal was 11900 fluorescence intensity (a.u.).

With “CTTAATTTATGTCGTACTTTCTTGGGTTTCTATTTTTAAACGGAGTCACCTAGTGCAG”, the binding signal was 12500 fluorescence intensity (a.u.).

For the sequence “TACTGGTCGTCTGGTCTACTCCGTCTCTCCTCTTCTCTCCCGGAGTCACCTAGTGCAG”, the binding signal is 12200 fluorescence intensity (a.u.).

Turning to “AATTGTGGCATGGCTCATGTTTGGGGTTATTTTTCAGATGCGGAGTCACCTAGTGCAG”, the binding signal is 10200 fluorescence intensity (a.u.).

In the case of “ATTCCTGTGTTTTTCCTGCGGCCCAATCAAACAATCATTCCGGAGTCACCTAGTGCAG”, the binding signal was 10300 fluorescence intensity (a.u.).

Take “TCACCCGTCCGCATCGTCGCCGGTCGCCGCCGGTCACCGCCGGAGTCACCTAGTGCAG”: the binding signal was 8820 fluorescence intensity (a.u.).

For “CTACGTCGCCCGTGTCTTGTGCTCTTCCTCTCTCGCGGACCGGAGTCACCTAGTGCAG”, the binding signal was 8090 fluorescence intensity (a.u.).

Turning to “AGAATGCATCACTTTGCTTTTGGCCAAGGTCATTTGAGCTCGGAGTCACCTAGTGCAG”, the binding signal was 10600 fluorescence intensity (a.u.).

As to “GCTGCTGAGCTCCGGCCGACCGAAGGTGCTCCATTCTCTCCGGAGTCACCTAGTGCAG”, the binding signal is 9470 fluorescence intensity (a.u.).

“GGGTGGTGATTTTTTAATGGGCGGTGATATTTTTAAGTGTCGGAGTCACCTAGTGCAG”: the binding signal was 9840 fluorescence intensity (a.u.).

As for “GGTTTGTTCATTACTCTGCCTACATTTTGTTTAAAGGGAACGGAGTCACCTAGTGCAG”, the binding signal was 11200 fluorescence intensity (a.u.).

For the sequence “GGTTTTGGAGAGCGGTTTCACTGACGTGGCAGTGTTGACCCGGAGTCACCTAGTGCAG”, the binding signal was 8090 fluorescence intensity (a.u.).

For “TCATATTCCTACCCCATTTACTCCACAGTTTTATCTTATCCGGAGTCACCTAGTGCAG”, the binding signal is 8260 fluorescence intensity (a.u.).

Turning to “CGCCTCGTCCTCTCCTTATCTCCTGTCTTTCGTGGCATCTCGGAGTCACCTAGTGCAG”, the binding signal is 8910 fluorescence intensity (a.u.).

Take “GGCGGCCGGGGCTTGTGTCGATCTGTTGGAGGAATTGTCTCGGAGTCACCTAGTGCAG”: the binding signal is 14100 fluorescence intensity (a.u.).

Turning to “CGGATGCCGTCCCTGCCGCCGGCCCACGTCGAGCTCATCCCGGAGTCACCTAGTGCAG”, the binding signal is 8260 fluorescence intensity (a.u.).

For the sequence “GATCTTGTCGTTGTTGTCGATGGAGGATAGCGGGAGGGAGCGGAGTCACCTAGTGCAG”, the binding signal is 9530 fluorescence intensity (a.u.).

Turning to “AGCCTACCAGCTGCACCGCAAATGCCGTGTACTGCTTTCTCGGAGTCACCTAGTGCAG”, the binding signal was 8340 fluorescence intensity (a.u.).

In the case of “AACACGTCTCCTATTTAGATTCGTAATATTATGATGCATTCGGAGTCACCTAGTGCAG”, the binding signal was 8370 fluorescence intensity (a.u.).

Consider “ATTTGTGATATGCCACCCTGACCCACATGTCATTGACTCACGGAGTCACCTAGTGCAG”, for which the binding signal was 9320 fluorescence intensity (a.u.).

As to “GGGACAACGGGTGAACTTATTCCACATCCAATTAACAGCGCGGAGTCACCTAGTGCAG”, the binding signal is 8070 fluorescence intensity (a.u.).

Consider “TCCATCACATCGTTCCAATTTCAACCAAACTTTCAATTTTCGGAGTCACCTAGTGCAG”, for which the binding signal was 9230 fluorescence intensity (a.u.).

For “TTGTATGATGGCCTTAAGGATGTTCTTCTTGCGCTGCTAACGGAGTCACCTAGTGCAG”, the binding signal is 9820 fluorescence intensity (a.u.).

In the case of “CACTACATAAACGCTCCCACCACCACACACCATTATTACTCGGAGTCACCTAGTGCAG”, the binding signal was 10100 fluorescence intensity (a.u.).

“GCTTACTTGCAGCTAATCTGCCTCGCATCAGCGCACACGACGGAGTCACCTAGTGCAG”: the binding signal is 8500 fluorescence intensity (a.u.).

“CACCCCACACCGCCCCGCCGCCTCCACTTCTCCCGGCGGTCGGAGTCACCTAGTGCAG”: the binding signal is 8600 fluorescence intensity (a.u.).

As for “GGCTTTGTAAGTCTTTGTTCACATTATTTGCTGGGTCTAACGGAGTCACCTAGTGCAG”, the binding signal is 8800 fluorescence intensity (a.u.).

In the case of “CCCTTTAATTTTCCTTTTTCATATTTTTTTTTCACATTTTCGGAGTCACCTAGTGCAG”, the binding signal is 9000 fluorescence intensity (a.u.).

“TTCCCTACACCACACACCAACACACACAAACCATTGCAACCGGAGTCACCTAGTGCAG”: the binding signal was 9810 fluorescence intensity (a.u.).

Turning to “ATCAGATGGATCTGCTCCCTTTTTTTATGTAATTGTTTGTCGGAGTCACCTAGTGCAG”, the binding signal is 8200 fluorescence intensity (a.u.).

Take “CTTGTTCCGTTTTCGCAATGTGTTCGCTATAAATATCATACGGAGTCACCTAGTGCAG”: the binding signal was 9270 fluorescence intensity (a.u.).

On to “ATACATGCCGTCGAATAATTATCTGAATCGTCCATTATCCCGGAGTCACCTAGTGCAG”, for which the binding signal is 9300 fluorescence intensity (a.u.).

For “CCTCCTCCAGCGCCCGCTCTTCTCGTCCCTCGCCGGCGGCCGGAGTCACCTAGTGCAG”, the binding signal was 8160 fluorescence intensity (a.u.).

With “CAACTTCTTGCTCTTTAACAGCGTAACTTACTTTGTATTGCGGAGTCACCTAGTGCAG”, the binding signal is 9520 fluorescence intensity (a.u.).

For the origin of these results see publication PMC7819943, “Rice protein-binding microarrays: a tool to detect cis-acting elements near promoter regions in rice”.
